No constants are given. Whether binding was seen depends on the method and setting. Binding seen in cells or lysates may run through a third protein. Some binding calls cover weakened binding; strength is not graded here. One block for each molecule: values may come before it.
Assays:
[1] = target: T1, Gremlin-1 (human (endogenous in A549)) (UniProt O60565); assay: co-IP; A549 cell lysates; anti-USP11 or anti-GREM1 antibody (or control IgG) on magnetic beads, incubated with lysate overnight at 4 °C; precipitates analysed by Western blot
T1 sequence: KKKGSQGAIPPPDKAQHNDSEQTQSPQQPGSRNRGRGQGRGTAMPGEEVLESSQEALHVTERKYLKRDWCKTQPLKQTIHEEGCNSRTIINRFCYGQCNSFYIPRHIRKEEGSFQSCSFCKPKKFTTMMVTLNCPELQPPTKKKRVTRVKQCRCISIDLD

Protein sequences, listed by entry. Tags and fused reporters are not part of them.
UniProt P51784: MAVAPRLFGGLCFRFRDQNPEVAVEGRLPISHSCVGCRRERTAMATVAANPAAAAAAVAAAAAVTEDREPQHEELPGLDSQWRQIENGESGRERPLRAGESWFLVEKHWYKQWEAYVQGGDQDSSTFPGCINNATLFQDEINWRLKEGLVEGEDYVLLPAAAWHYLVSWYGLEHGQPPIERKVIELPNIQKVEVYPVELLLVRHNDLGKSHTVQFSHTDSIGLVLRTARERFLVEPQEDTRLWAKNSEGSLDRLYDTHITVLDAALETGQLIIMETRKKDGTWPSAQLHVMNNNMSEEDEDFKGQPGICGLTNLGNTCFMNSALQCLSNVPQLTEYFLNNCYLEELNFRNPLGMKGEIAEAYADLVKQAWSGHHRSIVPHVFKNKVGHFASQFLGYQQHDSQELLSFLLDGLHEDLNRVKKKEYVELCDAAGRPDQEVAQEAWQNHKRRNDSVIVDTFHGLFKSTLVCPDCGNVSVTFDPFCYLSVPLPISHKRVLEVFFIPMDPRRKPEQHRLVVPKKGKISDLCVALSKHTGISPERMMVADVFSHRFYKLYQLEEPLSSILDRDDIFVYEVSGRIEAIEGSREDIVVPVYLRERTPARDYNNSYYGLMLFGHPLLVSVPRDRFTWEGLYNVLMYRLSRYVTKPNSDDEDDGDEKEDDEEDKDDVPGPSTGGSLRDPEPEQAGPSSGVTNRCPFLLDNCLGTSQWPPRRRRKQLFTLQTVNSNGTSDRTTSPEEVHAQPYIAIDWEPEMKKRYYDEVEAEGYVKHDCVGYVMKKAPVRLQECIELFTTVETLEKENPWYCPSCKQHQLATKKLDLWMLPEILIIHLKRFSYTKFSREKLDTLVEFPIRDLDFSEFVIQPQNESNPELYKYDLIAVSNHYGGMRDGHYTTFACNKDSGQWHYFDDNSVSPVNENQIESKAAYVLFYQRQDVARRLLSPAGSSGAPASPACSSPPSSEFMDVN

[2] = target: ubiquitin-specific protease 11 (human (endogenous in A549)) (UniProt P51784); assay: as above

binding [1]: binds
Molecule: ubiquitin-specific protease 11 (from UniProt P51784 1-963) (enzyme)

binding [2]: binds
B1: Gremlin-1 (protein, UniProt O60565 25-184)
chain: T1 sequence

Source: PMC10974697
